Measured values as given in paper PMC12040169 (PLOS Biology, 2025).
This is one part of the list.

Tested on: T1, CTL2-GFP (C. trachomatis L2/434/Bu, GFP-expressing)
T1 construct: L2/434/Bu, GFP-expressing
Set-up: species or system HeLa; Intracellular C. trachomatis growth in HeLa cells, bulk GFP fluorescence relative to DMSO
Details: bulk GFP, single well; 28.5 h, 10 µM; inhibitor

| SMILES | % of control remaining |
| --- | --- |
| CCCCSc1nc(N)cc(N2CCCC(C(=O)N3CCOCC3)C2)n1 (centres unmarked) [CBK307210] | 113.875% |
| O=C(c1cccc(S(=O)(=O)N2CCOCC2)c1)N(Cc1ccc(F)cc1)Cc1ccco1 [CBK265885] | 125.265% |
| CCCCNC(=S)NC1CC[C@@]2(Cc3ccc(OC)c(OC)c3)CCN(C)[C@H]2C1 (some centres unmarked) [CBK023805] | 147.876% |
| Cc1ccc(N)c(C(=O)CCC(=O)O)c1 [CBK017815C] | 129.722% |
| CCCn1c(SCC(=O)N2CCN(S(=O)(=O)c3ccc(C)cc3C)CC2)n[nH]c1=O [CBK295590] | 103.875% |
| O=C(Nc1ccccc1C(=O)N1CCOCC1)C1CCN(C(=O)c2ccco2)CC1 [CBK270272] | 102.094% |
| O=C(NCCOc1ccccc1F)C1CC(=O)N(Cc2ccccn2)C1 (centres unmarked) [CBK304632] | 102.094% |
| CC(=O)Nc1ccc(NC(=O)CC2(CC(=O)O)CCCCC2)cc1 [CBK299816] | 129.83% |
| COc1cc2c(cc1OC)CN(/C=N/c1sc3c(c1C#N)CC(C)(C)NC3(C)C)CC2 [CBK262918] | 100% |
| CC(=O)NS(=O)(=O)c1ccc(NC(=O)c2cn(-c3ccccc3)nc2-c2cccs2)cc1 [CBK296125] | 135.314% |
| O=C1CC2(CCCCC2)C(C(=O)O)N1 (centres unmarked) [CBK009895] | 118.335% |
| NC(=O)CN(CC(N)=O)S(=O)(=O)c1ccccc1 [CBK262490] | 122.693% |
| O=C(CNC(=S)NC(=O)c1ccc(Br)o1)c1ccccc1 [CBK265310] | 101.224% |
| CCCC/C=C/c1nccnc1NCc1ccc2c(c1)OCO2 [CBK037304] | 164.872% |
| Cc1ccccc1OCC1CCCN(C(=O)C2CC(=O)OC2(C)C)C1 (centres unmarked) [CBK282062] | 107.853% |
| Cc1nnc([C@H]2CCN(Cc3cccs3)C2)o1 [CBK289393] | 141.325% |
| Cc1ccc(Cl)cc1NC(=O)CC(C(=O)O)N(C)C (centres unmarked) [CBK267105] | 118.741% |
| Cc1ccsc1CN1CCCCC1CO (centres unmarked) [CBK026348] | 106.876% |
| CC(C)(C)C(=O)NCc1ccc(C(=O)CSc2n[nH]c(=O)n2C2CC2)s1 [CBK295653] | 127.634% |
| Nc1nonc1-c1nc2ccccc2n1Cc1cc2c(cc1Br)OCO2 [CBK267961] | 108.289% |
| O=C(NCC1(CCO)CC1)c1c[nH]nc1-c1cc2ccccc2o1 [CBK306163] | 113.448% |
| COc1ccc(CNC(=O)C2CC(=O)N(c3ccc(O)cc3)C2)cc1 (centres unmarked) [CBK270125] | 97.8413% |
| Cc1cc(C)n(CCCNC(=O)Nc2cccnc2)n1 [CBK304820] | 94.027% |
| CC(C)N(C(=O)CN1C(=O)N2CCCN=C2c2ccccc21)C(C)C [CBK284400] | 82.2993% |
| O=C(O)CCc1ccc(-c2cn3ccnc3c(N3CCOCC3)n2)cc1 [CBK066166] | 170.372% |
| Cc1cc(CNC(=O)C(C)n2cnc3ccccc32)on1 (centres unmarked) [CBK282196] | 127.476% |
| O=C1CCC(C(=O)Nc2cnc(-c3cccc(C(F)(F)F)c3)c(-c3cccnc3)n2)=NN1 [CBK036950] | 120.1% |

| SMILES | % of control remaining |
| --- | --- |
| O=C(O)CC1C(=O)NCCN1Cc1ccccc1Cl (centres unmarked) [CBK270114] | 132.835% |
| CCCC(=O)c1ccc(S(=O)(=O)N2CCN(Cc3cccc(Br)c3)CC2)cc1 [CBK063146] | 84.7339% |
| NC(=O)c1cccc(OCCOc2nccnc2N2CCNCC2)c1 [CBK014338G] | 95.3178% |
| CC(C)c1cc(C(=O)NC2CCOc3ccccc32)no1 (centres unmarked) [CBK283065] | 96.7422% |
| CC(C)(C)c1cc(CCCOC(=O)CNC2CCCCC2)cc(C(C)(C)C)c1O [CBK261998] | 100% |
| C[C@@H](c1ccccc1)n1c(=O)[nH]c2ncc(-c3cccc(C(=O)NCCN(C)C)c3)nc21 [CBK064376] | 153.654% |
| Cc1ccn(CCNC(=O)CC2CC3CCC2C3)n1 (centres unmarked) [CBK282068] | 109.939% |
| O=C1NCC2(CCCN(Cc3ccccc3F)C2)Oc2ccccc21 (centres unmarked) [CBK284901] | 117.176% |
| CCCn1ccnc1-c1cn(Cc2cc(C(C)(C)C)n[nH]2)nn1 [CBK306791] | 107.126% |
| CC(C)(C)OC(=O)NC1CCC(NCc2cc(F)cc(F)c2)CC1 (centres unmarked) [CBK056689] | 175.731% |
| Cc1cc(=O)n(CC(=O)NC(C)c2ccccn2)c2ccccc12 (centres unmarked) [CBK281820] | 142.413% |
| O=C(CCc1cccnc1)NC1Cc2ccccc2C1 [CBK200352] | 124.466% |
| Cc1ccc(-c2nc3ccccc3[nH]2)cc1NC(=O)COc1cccc([N+](=O)[O-])c1 [CBK265932] | 207.825% |
| Cc1ccc(NC(=O)C2CCCCC2C(=O)O)cc1Cl (centres unmarked) [CBK286938] | 159.65% |
| Cc1ccc(OCCn2c(=N)n(CCN3CCOCC3)c3ccccc32)cc1 [CBK269085B] | 126.583% |
| CCn1c(=O)n(CC(=O)NCc2cccs2)c2cccnc21 [CBK283811] | 129.846% |
| CS(=O)(=O)c1cccc(C(=O)Nc2cnc(-c3ccc(F)c(Cl)c3)c(-c3cccnc3)n2)c1 [CBK036779] | 119.047% |
| NS(=O)(=O)c1ccc(NC(=S)NC(=O)/C=C/c2ccc([N+](=O)[O-])cc2)cc1 [CBK262176] | 121.805% |
| COc1cc(C(=O)O)ccc1Oc1cnn(-c2ccccc2)c(=O)c1Cl [CBK287032] | 126.161% |
| COc1ccc(C(=O)CCCN2CCc3c([nH]c4ccc(OC)cc34)C2)cc1 [CBK083515T] | 122.349% |
| COC(=O)CCC(=O)N1CCc2c([nH]c3ccccc23)C12CCN(CCCc1ccccc1OC)C2 (centres unmarked) [CBK074952] | 118.932% |
| Cc1nc(C)n(CC2CCCN(Cc3ccc(C#N)cc3)C2)n1 (centres unmarked) [CBK305082] | 111.196% |
| O=[N+]([O-])c1ccc(/C=N/n2c(S)nnc2COc2ccccc2)cc1 [CBK265240] | 122.084% |
| Cc1cc(S(=O)(=O)N(CCC#N)Cc2ccccc2)c(C)cc1Cl [CBK043461] | 113.648% |
| CC(C)c1ccc(S(=O)(=O)N2CCN(c3ncnc4c3oc3ccccc34)CC2)cc1 [CBK296936] | 120.529% |
| NS(=O)(=O)c1cccnc1NCc1ccccc1 [CBK288448] | 128.114% |
| O=C(O)c1cccc(NC(=O)c2ccc3c(c2)C(=O)N(Cc2cccnc2)C3=O)c1 [CBK265523] | 100% |

| SMILES | % of control remaining |
| --- | --- |
| c1ccc(-c2ccc(Nc3ccc4c(c3)OCCO4)nc2)cc1 [CBK037802] | 151.816% |
| N#Cc1ccc(Oc2cccc(C(F)(F)F)c2)c(F)c1 [CBK002801] | 125.974% |
| CCOC(=O)C1(NC(=O)C2(Oc3cccnc3C)CCNCC2)CCC1 [CBK306688] | 149.516% |
| O=C1CN(C(=O)NC2CCc3ccccc32)CCN1 (centres unmarked) [CBK155878] | 104.109% |
| Cc1nn(C)c(C)c1CCn1cncc1-c1ccc2c(c1)CC(C)N2C (centres unmarked) [CBK281788] | 111.456% |
| COCc1nnc(Sc2cc(NC(C)C)ncn2)s1 [CBK093784] | 103.099% |
| CN(CC1(C)COC1)C(=O)c1ccc2c(c1)ncn2C1CC1 [CBK281718] | 129.07% |
| O=S(=O)(Nc1cnc2ccccc2c1)c1cccs1 [CBK043694] | 158.523% |
| CC[C@H](Cn1ncc2ccccc2c1=O)NC(=O)C(C)(C)C [CBK284304] | 135.021% |
| O=C(CSc1ccc2ccccc2n1)NNC(=O)c1cccc([N+](=O)[O-])c1 [CBK262506] | 129.367% |
| CCN(CC)C(=O)c1cccc(NC(=O)Cc2cn3ccsc3n2)c1 [CBK305353] | 99.7964% |
| Cc1nc(-c2ccccc2)ncc1COC(=O)N1CCOCC1 [CBK200147] | 99.3883% |
| Cc1ccc([N+](=O)[O-])cc1S(=O)(=O)Nc1ccc(O)c(Sc2nc3ccccc3s2)c1 [CBK266936] | 164.357% |
| C=CCOc1c(Br)cc(CNc2ccc(C(=O)O)cc2)cc1OC [CBK267202] | 68.1001% |
| CN1CCN(CCCNC(=O)c2ccc(-c3ccoc3)nc2)CC1 [CBK156257] | 129.131% |
| O=C1c2cc(S(=O)(=O)NCc3ccco3)ccc2-c2ccc(S(=O)(=O)NCc3ccco3)cc21 [CBK262250] | 116.505% |
| NS(=O)(=O)c1ccc(NC(=S)NNC(=O)c2ccc(Br)o2)cc1 [CBK266972] | 172.548% |
| Cc1ccccc1Oc1ccccc1NC(=O)CN1CCCCC1 [CBK015781C] | 87.8986% |
| CCOc1cc(NC2CCN(C(=O)NCC(F)F)CC2)ncn1 [CBK305485] | 149.711% |
| COc1ccccc1N1CCN(C(=O)NCC2CCCCC2)CC1 [CBK155588] | 109.407% |
| Clc1ccc(SCCCNCCN2CCOCC2)cc1 [CBK268603C] | 146.619% |
| CC(=O)c1cccc(NC(=O)Nc2cccc(S(=O)(=O)N3CCOCC3)c2)c1 [CBK266996] | 147.443% |
| O=C(NC(=O)C1CCN(CCc2cccc(C(F)(F)F)c2)CC1)Nc1cccc2ccccc12 [CBK035070] | 115.539% |
| CCC1(CC)OC(NC2CCCc3ccccc32)=NC1=O (centres unmarked) [CBK126555] | 117.299% |
| O=C(c1cc(Br)cc2c1OCC2)N1CCCCC1 [CBK007109] | 117.887% |
| Oc1ccc(Cl)cc1/C=N/c1ccc(-c2cc(-c3ccc(/N=C/c4cc(Cl)ccc4O)cc3)ncn2)cc1 [CBK261626] | 122.992% |

Exported as tab-separated lines: 5 of the compounds above.
SMILES	% of control remaining
CCOC(=O)C1(NC(=O)C2(Oc3cccnc3C)CCNCC2)CCC1 [CBK306688]	149.516%
O=C1CN(C(=O)NC2CCc3ccccc32)CCN1 (centres unmarked) [CBK155878]	104.109%
Cc1nn(C)c(C)c1CCn1cncc1-c1ccc2c(c1)CC(C)N2C (centres unmarked) [CBK281788]	111.456%
COCc1nnc(Sc2cc(NC(C)C)ncn2)s1 [CBK093784]	103.099%
CN(CC1(C)COC1)C(=O)c1ccc2c(c1)ncn2C1CC1 [CBK281718]	129.07%
